Single values are uncertain, as repeats are few or missing.
Compound: [O-][N+](C(C1=C(C(O)=C2)NC(C(C=C3)=CC=C3Cl)C4C1C=CC4)=C2Cl)=O
Test: melting temperature shift (compound 7 minus DMSO); higher = compound stabilises the protein
Settings: 10 µM
Protocol: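 Thermal proteome profiling (TMT mass spectrometry) in intact DAOY medulloblastoma cells or DAOY lysates treated with 10 µM compound 7 or DMSO, heated at 10 temperatures from 40.5 to 73.8 °C for 3 min. Melting curves were fitted with the Bioconductor TPP package, and the melting point difference between compound and vehicle is reported per protein (single curve per condition).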

Protein sequences, listed by entry. Tags and fused reporters are not part of them. Lines headed by an entry give the natural chain unless they say otherwise; changes in a name come on top.
UniProt Q8N7X1: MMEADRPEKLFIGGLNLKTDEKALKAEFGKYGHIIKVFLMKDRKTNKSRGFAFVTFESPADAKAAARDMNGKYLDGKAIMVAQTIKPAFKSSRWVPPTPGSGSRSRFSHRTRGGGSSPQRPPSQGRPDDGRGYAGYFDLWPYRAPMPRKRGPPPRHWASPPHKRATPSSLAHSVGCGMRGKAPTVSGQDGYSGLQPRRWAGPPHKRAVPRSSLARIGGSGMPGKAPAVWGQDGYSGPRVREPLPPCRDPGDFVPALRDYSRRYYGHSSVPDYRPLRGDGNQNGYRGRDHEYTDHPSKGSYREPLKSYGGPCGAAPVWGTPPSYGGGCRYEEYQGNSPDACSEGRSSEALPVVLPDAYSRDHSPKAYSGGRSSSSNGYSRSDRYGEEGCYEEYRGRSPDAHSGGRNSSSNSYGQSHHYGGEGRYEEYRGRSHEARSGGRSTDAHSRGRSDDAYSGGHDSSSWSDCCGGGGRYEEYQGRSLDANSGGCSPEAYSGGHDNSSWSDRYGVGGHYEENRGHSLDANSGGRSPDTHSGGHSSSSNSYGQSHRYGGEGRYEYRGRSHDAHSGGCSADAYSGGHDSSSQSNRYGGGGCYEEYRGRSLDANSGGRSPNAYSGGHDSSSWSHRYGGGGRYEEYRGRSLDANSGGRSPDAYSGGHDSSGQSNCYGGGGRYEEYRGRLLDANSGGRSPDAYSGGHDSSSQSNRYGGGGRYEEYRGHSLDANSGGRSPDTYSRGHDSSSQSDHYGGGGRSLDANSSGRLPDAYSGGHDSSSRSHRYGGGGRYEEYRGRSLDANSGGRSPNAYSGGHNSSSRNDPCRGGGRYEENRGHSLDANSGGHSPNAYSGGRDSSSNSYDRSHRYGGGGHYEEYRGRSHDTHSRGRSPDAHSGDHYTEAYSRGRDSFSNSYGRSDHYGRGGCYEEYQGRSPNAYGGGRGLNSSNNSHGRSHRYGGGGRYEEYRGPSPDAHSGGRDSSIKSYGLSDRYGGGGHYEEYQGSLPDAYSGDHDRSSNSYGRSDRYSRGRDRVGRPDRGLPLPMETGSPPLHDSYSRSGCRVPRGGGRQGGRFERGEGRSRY
UniProt O00592: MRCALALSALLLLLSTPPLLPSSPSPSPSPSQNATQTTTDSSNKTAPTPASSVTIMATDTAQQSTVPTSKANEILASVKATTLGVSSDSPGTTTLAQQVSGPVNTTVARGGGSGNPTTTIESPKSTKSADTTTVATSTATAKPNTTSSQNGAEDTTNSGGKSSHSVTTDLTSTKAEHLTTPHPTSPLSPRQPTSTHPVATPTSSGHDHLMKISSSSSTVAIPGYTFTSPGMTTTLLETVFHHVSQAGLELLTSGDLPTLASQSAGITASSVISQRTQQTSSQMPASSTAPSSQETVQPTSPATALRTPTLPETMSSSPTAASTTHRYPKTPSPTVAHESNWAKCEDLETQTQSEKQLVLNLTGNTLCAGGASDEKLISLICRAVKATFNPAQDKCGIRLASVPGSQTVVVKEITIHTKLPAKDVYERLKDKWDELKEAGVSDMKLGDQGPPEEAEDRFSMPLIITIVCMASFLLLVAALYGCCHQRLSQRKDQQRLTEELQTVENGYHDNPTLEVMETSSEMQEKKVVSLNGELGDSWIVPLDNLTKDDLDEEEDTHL
UniProt Q96CW1: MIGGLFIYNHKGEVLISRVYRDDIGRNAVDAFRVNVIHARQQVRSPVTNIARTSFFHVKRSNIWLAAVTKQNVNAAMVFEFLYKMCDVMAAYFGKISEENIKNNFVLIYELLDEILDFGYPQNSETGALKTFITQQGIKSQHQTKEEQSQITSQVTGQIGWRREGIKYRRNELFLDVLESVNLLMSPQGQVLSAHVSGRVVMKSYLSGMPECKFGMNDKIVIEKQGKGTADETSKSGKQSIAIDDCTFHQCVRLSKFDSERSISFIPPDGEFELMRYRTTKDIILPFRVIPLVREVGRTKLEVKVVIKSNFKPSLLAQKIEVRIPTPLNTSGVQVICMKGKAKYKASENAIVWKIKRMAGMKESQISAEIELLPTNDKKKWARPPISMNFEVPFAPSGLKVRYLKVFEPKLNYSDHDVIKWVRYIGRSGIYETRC
UniProt O15027: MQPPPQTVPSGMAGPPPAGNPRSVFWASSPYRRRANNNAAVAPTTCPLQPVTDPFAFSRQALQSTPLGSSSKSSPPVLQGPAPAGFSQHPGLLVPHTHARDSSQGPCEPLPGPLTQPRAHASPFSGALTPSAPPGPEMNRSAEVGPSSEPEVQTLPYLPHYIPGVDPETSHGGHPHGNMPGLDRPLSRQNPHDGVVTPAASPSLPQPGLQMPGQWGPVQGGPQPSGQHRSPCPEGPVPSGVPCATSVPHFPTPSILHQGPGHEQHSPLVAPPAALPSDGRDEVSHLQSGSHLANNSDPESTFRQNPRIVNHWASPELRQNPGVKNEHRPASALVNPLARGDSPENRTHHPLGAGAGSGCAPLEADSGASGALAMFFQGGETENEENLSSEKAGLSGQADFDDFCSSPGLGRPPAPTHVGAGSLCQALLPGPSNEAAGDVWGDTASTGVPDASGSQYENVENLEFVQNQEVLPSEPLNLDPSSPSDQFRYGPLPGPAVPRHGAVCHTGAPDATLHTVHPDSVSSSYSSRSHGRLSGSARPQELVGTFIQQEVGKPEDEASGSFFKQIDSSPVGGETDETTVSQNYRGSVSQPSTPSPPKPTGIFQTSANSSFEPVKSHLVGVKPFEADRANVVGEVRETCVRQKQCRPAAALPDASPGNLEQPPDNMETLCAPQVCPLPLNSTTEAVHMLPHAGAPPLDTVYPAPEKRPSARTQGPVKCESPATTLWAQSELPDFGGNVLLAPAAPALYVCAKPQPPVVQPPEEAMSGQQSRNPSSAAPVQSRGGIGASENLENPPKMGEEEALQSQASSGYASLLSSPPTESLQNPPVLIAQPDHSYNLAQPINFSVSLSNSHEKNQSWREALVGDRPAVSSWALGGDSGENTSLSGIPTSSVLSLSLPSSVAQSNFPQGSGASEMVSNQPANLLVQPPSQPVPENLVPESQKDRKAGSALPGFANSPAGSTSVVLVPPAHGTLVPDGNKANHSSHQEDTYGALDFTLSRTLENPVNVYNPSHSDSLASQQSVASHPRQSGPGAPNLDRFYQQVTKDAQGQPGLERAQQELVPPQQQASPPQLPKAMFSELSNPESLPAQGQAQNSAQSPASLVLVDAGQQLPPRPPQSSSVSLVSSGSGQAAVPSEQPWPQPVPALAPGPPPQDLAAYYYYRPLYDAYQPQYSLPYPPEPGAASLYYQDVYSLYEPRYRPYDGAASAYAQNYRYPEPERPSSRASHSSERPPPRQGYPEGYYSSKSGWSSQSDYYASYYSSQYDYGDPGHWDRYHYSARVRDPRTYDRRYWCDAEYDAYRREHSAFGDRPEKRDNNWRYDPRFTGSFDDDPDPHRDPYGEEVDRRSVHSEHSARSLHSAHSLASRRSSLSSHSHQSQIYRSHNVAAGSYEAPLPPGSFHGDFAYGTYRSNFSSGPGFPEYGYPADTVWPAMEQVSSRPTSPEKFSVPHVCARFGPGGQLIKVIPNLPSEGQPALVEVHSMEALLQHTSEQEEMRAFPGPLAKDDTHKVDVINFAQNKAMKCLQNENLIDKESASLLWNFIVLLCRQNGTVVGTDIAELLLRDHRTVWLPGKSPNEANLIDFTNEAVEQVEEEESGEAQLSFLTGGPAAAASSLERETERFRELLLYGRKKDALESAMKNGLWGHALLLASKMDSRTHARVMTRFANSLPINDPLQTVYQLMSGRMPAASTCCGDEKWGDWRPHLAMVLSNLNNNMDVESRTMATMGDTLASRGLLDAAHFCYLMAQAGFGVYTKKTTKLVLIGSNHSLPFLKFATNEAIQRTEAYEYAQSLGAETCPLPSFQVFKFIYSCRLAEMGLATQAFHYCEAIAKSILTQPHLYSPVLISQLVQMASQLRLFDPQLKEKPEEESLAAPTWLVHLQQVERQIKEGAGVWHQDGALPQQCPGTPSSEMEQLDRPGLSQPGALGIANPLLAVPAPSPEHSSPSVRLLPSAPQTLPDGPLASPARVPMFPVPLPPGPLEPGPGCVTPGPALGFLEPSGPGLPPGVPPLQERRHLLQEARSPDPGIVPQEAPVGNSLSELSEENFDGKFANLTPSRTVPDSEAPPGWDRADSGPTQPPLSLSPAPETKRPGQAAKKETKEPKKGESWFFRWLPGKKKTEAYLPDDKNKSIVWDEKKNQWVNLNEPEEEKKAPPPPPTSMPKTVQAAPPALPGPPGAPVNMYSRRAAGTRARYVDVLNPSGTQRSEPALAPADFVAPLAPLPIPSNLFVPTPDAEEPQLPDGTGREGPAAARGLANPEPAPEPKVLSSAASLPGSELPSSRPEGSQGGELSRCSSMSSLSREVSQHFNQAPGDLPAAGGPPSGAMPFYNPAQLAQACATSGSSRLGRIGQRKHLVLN
UniProt Q9NW13: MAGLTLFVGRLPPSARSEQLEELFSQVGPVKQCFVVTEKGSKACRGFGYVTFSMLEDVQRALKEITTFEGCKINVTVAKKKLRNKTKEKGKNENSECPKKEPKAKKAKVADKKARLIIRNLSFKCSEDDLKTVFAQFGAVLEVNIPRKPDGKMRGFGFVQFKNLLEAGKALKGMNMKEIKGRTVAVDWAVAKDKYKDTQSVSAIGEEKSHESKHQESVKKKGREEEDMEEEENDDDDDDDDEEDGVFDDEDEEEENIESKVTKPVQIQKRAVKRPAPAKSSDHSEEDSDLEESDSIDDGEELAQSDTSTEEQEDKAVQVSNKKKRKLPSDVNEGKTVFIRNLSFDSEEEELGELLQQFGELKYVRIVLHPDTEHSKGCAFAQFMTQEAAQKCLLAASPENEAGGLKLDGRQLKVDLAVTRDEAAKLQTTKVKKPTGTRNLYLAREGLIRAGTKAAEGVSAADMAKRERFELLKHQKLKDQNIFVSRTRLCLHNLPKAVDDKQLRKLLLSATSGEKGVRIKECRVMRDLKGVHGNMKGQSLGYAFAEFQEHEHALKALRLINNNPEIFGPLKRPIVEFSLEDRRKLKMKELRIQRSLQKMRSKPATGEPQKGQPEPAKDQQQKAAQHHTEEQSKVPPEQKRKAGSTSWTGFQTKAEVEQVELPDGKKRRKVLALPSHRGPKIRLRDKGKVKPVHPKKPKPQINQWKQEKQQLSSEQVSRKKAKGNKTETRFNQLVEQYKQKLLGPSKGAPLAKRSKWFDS
UniProt P34949: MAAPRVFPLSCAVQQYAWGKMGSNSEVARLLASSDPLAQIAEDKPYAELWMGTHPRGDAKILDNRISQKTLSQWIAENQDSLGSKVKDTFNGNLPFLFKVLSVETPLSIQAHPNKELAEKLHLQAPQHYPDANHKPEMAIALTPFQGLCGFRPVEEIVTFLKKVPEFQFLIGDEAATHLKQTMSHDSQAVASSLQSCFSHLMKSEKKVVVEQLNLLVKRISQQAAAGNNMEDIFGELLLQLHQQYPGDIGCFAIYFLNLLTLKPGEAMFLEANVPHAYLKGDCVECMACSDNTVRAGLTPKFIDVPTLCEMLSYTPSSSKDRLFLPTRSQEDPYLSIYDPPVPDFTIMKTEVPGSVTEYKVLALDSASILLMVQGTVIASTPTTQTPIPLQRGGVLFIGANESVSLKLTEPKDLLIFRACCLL
UniProt O75525: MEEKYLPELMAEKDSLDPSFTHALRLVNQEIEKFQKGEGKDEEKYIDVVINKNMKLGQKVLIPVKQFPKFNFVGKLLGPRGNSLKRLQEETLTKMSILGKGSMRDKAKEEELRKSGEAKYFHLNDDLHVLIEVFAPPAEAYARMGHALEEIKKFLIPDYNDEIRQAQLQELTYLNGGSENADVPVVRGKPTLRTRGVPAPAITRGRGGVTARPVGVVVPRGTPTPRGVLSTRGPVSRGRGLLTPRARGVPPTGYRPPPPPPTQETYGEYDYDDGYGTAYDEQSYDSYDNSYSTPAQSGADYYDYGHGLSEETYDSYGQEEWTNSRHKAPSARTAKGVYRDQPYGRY
UniProt Q99608: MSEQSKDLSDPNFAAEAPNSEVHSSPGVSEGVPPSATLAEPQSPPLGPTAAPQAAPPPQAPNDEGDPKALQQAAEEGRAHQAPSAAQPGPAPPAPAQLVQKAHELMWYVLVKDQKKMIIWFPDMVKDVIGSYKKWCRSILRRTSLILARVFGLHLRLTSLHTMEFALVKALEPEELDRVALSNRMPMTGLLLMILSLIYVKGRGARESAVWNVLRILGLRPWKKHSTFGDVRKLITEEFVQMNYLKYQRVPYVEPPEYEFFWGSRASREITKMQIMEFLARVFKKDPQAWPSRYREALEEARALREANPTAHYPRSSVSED
UniProt Q9NQT5, whole entry: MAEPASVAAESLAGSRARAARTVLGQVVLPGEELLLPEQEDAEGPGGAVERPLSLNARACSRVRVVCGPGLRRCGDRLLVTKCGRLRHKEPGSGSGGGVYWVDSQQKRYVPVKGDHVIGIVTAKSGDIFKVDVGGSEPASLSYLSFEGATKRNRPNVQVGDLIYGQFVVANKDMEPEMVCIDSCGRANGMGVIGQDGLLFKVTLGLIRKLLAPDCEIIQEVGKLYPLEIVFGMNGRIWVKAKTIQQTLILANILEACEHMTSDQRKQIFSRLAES

[1] = system: intact DAOY cells, treatment time: 90 min, 37 °C
[2] = system: DAOY cell lysate, treatment time: 20 min, 4 °C

Target	melting temperature shift [1]	melting temperature shift [2]
UniProt Q8N7X1	-0.341 °C	–
FRA10AC1 (UniProt Q70Z53)	-0.494 °C	-1.92 °C
CANT1 (UniProt Q8WVQ1)	-0.0931 °C	0.474 °C
UniProt Q93062	4.84 °C	-0.291 °C
UniProt Q8TCU4	–	0.488 °C
GTF2A2 (UniProt P52657)	-2.24 °C	0.132 °C
YWHAH (UniProt Q04917)	0.294 °C	0.11 °C
KLC4 (UniProt Q9NSK0)	-2.98 °C	5.18 °C
UniProt P52435	–	-1.38 °C
STMN1 (UniProt P16949)	–	-3.73 °C
KLHL11 (UniProt Q9NVR0)	–	1.35 °C
PODXL (UniProt O00592)	–	1.66 °C
KIF3A (UniProt Q9Y496)	-0.668 °C	-0.542 °C
RPL19 (UniProt P84098)	-0.563 °C	0.545 °C
AP2M1 (UniProt Q96CW1)	0.0466 °C	-0.731 °C
RNF40 (UniProt O75150)	0.0116 °C	-0.875 °C
SEC16A (UniProt O15027)	0.876 °C	0.0409 °C
PMS2 (UniProt P54278)	-0.422 °C	–
UniProt Q05D32	-0.297 °C	-1.57 °C

Target	melting temperature shift [1]	melting temperature shift [2]
FAM160B1 (UniProt Q5W0V3)	0.812 °C	-1.48 °C
NDUFB3 (UniProt O43676)	-0.378 °C	2.14 °C
UniProt Q7Z3E5	-1.21 °C	-1.31 °C
CYR61 (UniProt O00622)	1.3 °C	1.2 °C
TMED1 (UniProt Q13445)	-0.685 °C	0.368 °C
EXOC3 (UniProt O60645)	-0.512 °C	0.272 °C
RBM28 (UniProt Q9NW13)	1.11 °C	0.881 °C
MPI (UniProt P34949)	0.249 °C	-0.167 °C
RAD54L2 (UniProt Q9Y4B4)	–	2.77 °C
UniProt Q9Y2X8	-0.00572 °C	1.05 °C
UniProt P15153	-0.381 °C	0.0134 °C
UniProt O75525	0.333 °C	–
PIK3R2 (UniProt O00459)	2.66 °C	0.586 °C
POMK (UniProt Q9H5K3)	-1.94 °C	1.44 °C
SLC25A1 (UniProt P53007)	–	0.792 °C
ATP13A3 (UniProt Q9H7F0)	-0.849 °C	-1.17 °C
TRMT13 (UniProt Q9NUP7)	1.29 °C	-0.247 °C
ATG9A (UniProt Q7Z3C6)	0.147 °C	-1.03 °C
SLIRP (UniProt Q9GZT3)	-1.15 °C	0.744 °C

Copied from above (3 entries):
Target	melting temperature shift [1]	melting temperature shift [2]
AP2M1 (UniProt Q96CW1)	0.0466 °C	-0.731 °C
RNF40 (UniProt O75150)	0.0116 °C	-0.875 °C
SEC16A (UniProt O15027)	0.876 °C	0.0409 °C

Further results follow:

Target	melting temperature shift [1]	melting temperature shift [2]
UniProt Q99608	-0.916 °C	-2.26 °C
USP7 (UniProt Q93009)	-0.101 °C	-0.383 °C
BTN2A1 (UniProt Q7KYR7)	0.361 °C	0.589 °C
MIEN1 (UniProt Q9BRT3)	-2.01 °C	-1.85 °C
DNAJC11 (UniProt Q9NVH1)	0.136 °C	0.93 °C
DOPEY2 (UniProt Q9Y3R5)	–	-0.409 °C
WAC (UniProt Q9BTA9)	-0.397 °C	-0.155 °C
UniProt P49418	-0.266 °C	-0.418 °C
TNRC6A (UniProt Q8NDV7)	-0.113 °C	5.37 °C
ATP6AP2 (UniProt O75787)	-0.338 °C	0.655 °C
SMC6 (UniProt Q96SB8)	0.1 °C	0.264 °C
EXOSC3 (UniProt Q9NQT5)	0.572 °C	0.103 °C
UniProt Q9GZQ8	-0.00167 °C	-0.399 °C
UBE2E3 (UniProt Q969T4)	-1.18 °C	0.793 °C
UniProt Q9UI47	-0.265 °C	–
SRP72 (UniProt O76094)	-0.877 °C	-0.272 °C
UniProt Q86UP3	–	-0.805 °C
UniProt A9Z1Z3	0.0972 °C	–
